Some of the results follow. Many values rest on one well or one pass, so single values are uncertain.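 Test system: a mixed pool of 41 HAP1 clones in which 61 cancer-associated proteins carry fluorescent tags inserted into introns, and each clone is identified from its image pattern. Read-outs are compared with DMSO-treated control wells. The BRD4 degrader dBET6 served as the positive control.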

By UniProt entry, the sequences of proteins in these tests, tags left out.
UniProt O14980, whole entry: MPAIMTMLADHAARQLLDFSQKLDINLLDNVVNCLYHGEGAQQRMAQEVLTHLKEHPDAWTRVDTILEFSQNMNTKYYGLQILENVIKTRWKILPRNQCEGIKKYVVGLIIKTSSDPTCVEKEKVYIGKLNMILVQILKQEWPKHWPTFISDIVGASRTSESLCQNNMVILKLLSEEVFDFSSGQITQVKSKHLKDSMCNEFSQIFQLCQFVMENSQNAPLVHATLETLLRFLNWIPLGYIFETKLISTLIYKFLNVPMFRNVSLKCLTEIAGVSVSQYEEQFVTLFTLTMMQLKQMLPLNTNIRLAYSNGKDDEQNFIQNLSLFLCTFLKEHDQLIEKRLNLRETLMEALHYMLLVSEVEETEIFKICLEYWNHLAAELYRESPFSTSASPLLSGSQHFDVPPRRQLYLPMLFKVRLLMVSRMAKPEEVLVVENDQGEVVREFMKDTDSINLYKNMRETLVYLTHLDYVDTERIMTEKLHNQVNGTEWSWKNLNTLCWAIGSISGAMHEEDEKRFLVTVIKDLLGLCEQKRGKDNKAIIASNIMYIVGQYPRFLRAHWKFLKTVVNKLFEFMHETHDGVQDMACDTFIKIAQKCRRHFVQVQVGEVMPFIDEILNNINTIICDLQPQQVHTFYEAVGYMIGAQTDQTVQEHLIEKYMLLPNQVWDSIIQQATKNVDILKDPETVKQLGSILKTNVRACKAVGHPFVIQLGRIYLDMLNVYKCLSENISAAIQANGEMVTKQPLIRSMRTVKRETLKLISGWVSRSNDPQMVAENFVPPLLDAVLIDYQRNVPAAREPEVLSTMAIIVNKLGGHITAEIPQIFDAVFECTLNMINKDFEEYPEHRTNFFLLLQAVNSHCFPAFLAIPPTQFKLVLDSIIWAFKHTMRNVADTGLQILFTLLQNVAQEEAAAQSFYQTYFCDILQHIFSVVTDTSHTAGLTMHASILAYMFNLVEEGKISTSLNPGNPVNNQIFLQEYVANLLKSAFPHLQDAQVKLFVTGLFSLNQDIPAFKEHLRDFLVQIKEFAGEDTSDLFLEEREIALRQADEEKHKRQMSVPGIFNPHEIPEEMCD

This assay has as its target XPO1 (intron 15 mScarlet tag, HAP1) (UniProt O14980). Put plainly: XPO1 fluorescence intensity change vs DMSO (log2 fold change); higher = more XPO1 protein. Particulars: 6 h.
On to `CNS(=O)(=O)c1ccc(C(=O)Nc2cc(CCc3ccccc3)ccn2)cc1` (10 µM), for which the “XPO1 fluorescence intensity change (log2)” value was -0.13.

As to `CC(C)n1c(SCC(=O)Nc2ccc3c(c2)CCC3)nc2ccccc2c1=O` (10 µM), the “XPO1 fluorescence intensity change (log2)” value is -0.068.

Take `COc1ccc(CC(=O)NCc2ccc(C(=O)N3CCCCC3)cc2)cc1` (10 µM): the “XPO1 fluorescence intensity change (log2)” value came out at 0.152.

With `O=C(CCCl)NC(=O)Nc1ccc2c(c1)OCO2` (10 µM), the “XPO1 fluorescence intensity change (log2)” value is 0.0745.

As for `Cc1ccc(C2=Nn3c(COc4ccccc4F)nnc3SC2)c(C)c1` (0.1 µM), the “XPO1 fluorescence intensity change (log2)” value stood at 0.0821.

For `Cn1cnc([N+](=O)[O-])c1Sc1ncnc2[nH]cnc12` [azathioprine] (10 µM), the “XPO1 fluorescence intensity change (log2)” value was -0.00565.

As to `CCN(c1cc(-c2ccc(CN3CCOCC3)cc2)cc(C(=O)NCc2c(C)cc(C)[nH]c2=O)c1C)C1CCOCC1` (10 µM), the “XPO1 fluorescence intensity change (log2)” value is 0.135.

As to `Cc1ccc(NC(=O)C2CC(=O)N(c3cccc(Cl)c3)C2)nc1` (centres undefined) (10 µM), the “XPO1 fluorescence intensity change (log2)” value turned out to be 0.196.

On to `O=C(Nc1ccc(C(=O)N2CCCC2)cc1)c1ccc(Br)o1` (10 µM), for which the “XPO1 fluorescence intensity change (log2)” value was -0.00364.

Take `Cc1nn(-c2nc3ccccc3[nH]2)c(=O)c2ccccc12` (1 µM): the “XPO1 fluorescence intensity change (log2)” value stood at 0.103.

For `O=C(Nc1ccc(N2CCCC2=O)cc1)c1cccs1` (10 µM), the “XPO1 fluorescence intensity change (log2)” value is -0.157.

For `O=C(Nc1ccc(N2CCCC2)cn1)c1cccc(Cl)c1` (10 µM), the “XPO1 fluorescence intensity change (log2)” value was -0.051.

On to `COc1ccc(N(Cc2cccs2)S(=O)(=O)c2cnn(C)c2)cc1` (10 µM), for which the “XPO1 fluorescence intensity change (log2)” value amounted to 0.0528.

In the case of `CCCCn1c(CCl)nc2c1c(=O)[nH]c(=O)n2Cc1ccccc1` (1 µM), the “XPO1 fluorescence intensity change (log2)” value stood at 0.00829.

As for `Cc1c(CCCl)c(Cl)n2c(nc3ccccc32)c1C#N` (10 µM), the “XPO1 fluorescence intensity change (log2)” value came out at 0.0937.

As to `O=C(/C=C/c1cccc(Cl)c1)c1ccc(O)c(CCCl)c1` (10 µM), the “XPO1 fluorescence intensity change (log2)” value is -0.317.

`CN(Cc1ccccc1)C(=O)CCCNc1ccnc2cc(Cl)ccc12` (10 µM): the “XPO1 fluorescence intensity change (log2)” value is -0.149.

Turning to `Cc1cc(C(=O)N(C)Cc2cnn(C)c2)c(C)n1Cc1ccccc1` (10 µM), the “XPO1 fluorescence intensity change (log2)” value came out at 0.109.

In the case of `O=C(Nc1cccnc1)c1ccc(Br)s1` (10 µM), the “XPO1 fluorescence intensity change (log2)” value was -0.104.

On to `O=C(Nc1ccc(-c2ccccc2)cn1)c1cccc(Cl)c1` (10 µM), for which the “XPO1 fluorescence intensity change (log2)” value is -0.00165.

As to `Cn1cnnc1NC(=O)c1cc2c(s1)-c1ccccc1CC2` (10 µM), the “XPO1 fluorescence intensity change (log2)” value came out at 0.0892.

In the case of `COc1ccc(-c2noc(CCl)n2)cc1OC` (0.1 µM), the “XPO1 fluorescence intensity change (log2)” value was -0.136.

For the compound `CN1CC(=O)Nc2cc(Cl)ccc21` (10 µM), the “XPO1 fluorescence intensity change (log2)” value is -0.12.

Regarding `CCCCn1c(CCl)nc2cc(S(N)(=O)=O)ccc21` (10 µM), the “XPO1 fluorescence intensity change (log2)” value was 0.0165.

With `COc1cc(-c2noc(CCl)n2)ccc1OC(F)F` (10 µM), the “XPO1 fluorescence intensity change (log2)” value was -0.498.

As for `COc1ccc(Cl)cc1NS(=O)(=O)c1ccc(OC)c(C)c1C` (10 µM), the “XPO1 fluorescence intensity change (log2)” value amounted to 0.0127.

As to `O=C(c1ccccc1)N1c2ccccc2C=CC1c1c[nH]c2ccccc12` (centres undefined) (0.1 µM), the “XPO1 fluorescence intensity change (log2)” value is -0.0716.

On to `O=C(/C=C/c1ccc(Cl)cc1)c1ccc(O)c(CCCl)c1` (1 µM), for which the “XPO1 fluorescence intensity change (log2)” value is -0.165.

As for `COc1ccc(CCNC(=O)c2cc3c(F)cccc3s2)cc1OC` (10 µM), the “XPO1 fluorescence intensity change (log2)” value is -0.279.

For `CC(C)c1ccccc1OCC(=O)Nc1ccc2[nH]c(=O)c(=O)[nH]c2c1` (10 µM), the “XPO1 fluorescence intensity change (log2)” value is -0.0282.

With `O=c1[nH]c(=O)n([C@H]2C[C@H](O)[C@@H](CO)O2)cc1F` [floxuridine] (10 µM), the “XPO1 fluorescence intensity change (log2)” value came out at 0.0681.

For `COc1cc(NC(C)c2nc3sc(C)c(C)c3c(=O)[nH]2)cc(OC)c1` (centres undefined) (10 µM), the “XPO1 fluorescence intensity change (log2)” value is -0.0581.

In the case of `CCc1ccc(C(=O)Nc2sccc2C(N)=O)cc1` (10 µM), the “XPO1 fluorescence intensity change (log2)” value was -0.11.

Turning to `CC(Oc1ccc(Cl)cc1)C(=O)Nc1ccccc1-c1nc2ccccc2[nH]1` (centres undefined) (10 µM), the “XPO1 fluorescence intensity change (log2)” value is -0.0906.

For the compound `NNC(=O)COc1ccc(C23CC4CC(CC(C4)C2)C3)cc1` (10 µM), the “XPO1 fluorescence intensity change (log2)” value was 0.0568.

On to `COc1ccc(S(=O)(=O)NCCc2c(C)[nH]c3ccc(C)cc23)c2ccccc12` (10 µM), for which the “XPO1 fluorescence intensity change (log2)” value came to 0.141.

With `O=C(Cc1noc2ccccc12)Nc1ccc(Cn2ccccc2=O)cc1` (10 µM), the “XPO1 fluorescence intensity change (log2)” value was determined as 0.138.

Turning to `CC1(C)CCC(CN2CCN(c3ccc(C(=O)NS(=O)(=O)c4ccc(NCC5CCOCC5)c([N+](=O)[O-])c4)c(Oc4cnc5[nH]ccc5c4)c3)CC2)=C(c2ccc(Cl)cc2)C1` (10 µM), the “XPO1 fluorescence intensity change (log2)” value is -0.292.

Turning to `Clc1ccc(-c2csc3ncnc(Sc4nnnn4CC4CCCO4)c23)cc1` (centres undefined) (10 µM), the “XPO1 fluorescence intensity change (log2)” value worked out at 0.0273.

The values above are taken from the supplement of paper PMC11098740.
